Consider 1 molecule from US20060210973A1.

The target in this assay is Vav bait (aa. 172-598). Nature of the assay: yeast two-hybrid, growth on selective medium.

These are yes or no findings as the source states them, for the method shown.

B1: TRIAPα (Trio inhibitory aptamer), yeast two-hybrid prey (designed binder, not shown: large carriers)
chain: MSDKIIHLTDDSFDTDVLKADGAILVDFWAEWCGPAREGADGAICGYNLATLVMLGPSERVFCPLCEPCSSDIYELMGPCKMIAPILDEIADEYQGKLTVAKLNIDQNPGTAPKYGIRGIPTLLLFKNGEVASATKVGALSKGQLKEFLDANLA
In the case of B1, the binding entry is reported as “no binding”.
